No constants are given. Whether binding was seen depends on the method and setting. Binding seen in cells or lysates may run through a third protein. Binding can be weak; no strength is given. For some of these results: Tags and fused reporters may be left off the sequences shown.

This note sets out measurements from paper PMC11854013.

In experiment [1] the target is T1, Myc-SVCV-P (spring viraemia of carp virus) (UniProt Q91DS2).
T1 sequence: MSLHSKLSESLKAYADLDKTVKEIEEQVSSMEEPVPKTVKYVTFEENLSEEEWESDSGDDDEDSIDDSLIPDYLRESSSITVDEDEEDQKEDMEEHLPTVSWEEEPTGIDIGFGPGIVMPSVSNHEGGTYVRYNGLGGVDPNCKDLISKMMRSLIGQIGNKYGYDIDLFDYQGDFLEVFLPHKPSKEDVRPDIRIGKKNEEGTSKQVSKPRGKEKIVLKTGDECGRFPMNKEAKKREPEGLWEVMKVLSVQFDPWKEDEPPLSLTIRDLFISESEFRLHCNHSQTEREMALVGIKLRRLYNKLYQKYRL
Nature of the experiment: co-IP; HEK293 cells co-transfected with 10 ug of plasmids, 24 h; lysed in RIPA buffer with PMSF; supernatant incubated with anti-Myc or anti-GFP affinity gel; washed three times with lysis buffer; western blot.

For experiment [2], the target named is T1, Myc-SVCV-P (spring viraemia of carp virus). Nature of the experiment: co-IP; as a1, cell lysates digested with RNase before the co-IP.
In experiment [3] the target is T2, SVCV-M (spring viraemia of carp virus) (UniProt P04888).
T2 sequence: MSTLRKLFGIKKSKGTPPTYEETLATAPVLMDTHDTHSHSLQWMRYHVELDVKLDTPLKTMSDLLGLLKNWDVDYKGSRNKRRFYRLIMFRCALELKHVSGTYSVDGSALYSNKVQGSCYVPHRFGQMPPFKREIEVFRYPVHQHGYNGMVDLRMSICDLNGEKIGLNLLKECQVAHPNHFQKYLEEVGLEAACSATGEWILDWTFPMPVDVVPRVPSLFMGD
Kind of experiment: co-IP; HEK293 cells co-transfected with 10 ug of plasmids, 24 h; lysed in RIPA buffer with PMSF; supernatant incubated with anti-Myc or anti-GFP affinity gel; washed three times with lysis buffer; western blot.

For experiment [4], the target named is T3, SVCV-N (spring viraemia of carp virus) (UniProt Q91DS3).
T3 sequence: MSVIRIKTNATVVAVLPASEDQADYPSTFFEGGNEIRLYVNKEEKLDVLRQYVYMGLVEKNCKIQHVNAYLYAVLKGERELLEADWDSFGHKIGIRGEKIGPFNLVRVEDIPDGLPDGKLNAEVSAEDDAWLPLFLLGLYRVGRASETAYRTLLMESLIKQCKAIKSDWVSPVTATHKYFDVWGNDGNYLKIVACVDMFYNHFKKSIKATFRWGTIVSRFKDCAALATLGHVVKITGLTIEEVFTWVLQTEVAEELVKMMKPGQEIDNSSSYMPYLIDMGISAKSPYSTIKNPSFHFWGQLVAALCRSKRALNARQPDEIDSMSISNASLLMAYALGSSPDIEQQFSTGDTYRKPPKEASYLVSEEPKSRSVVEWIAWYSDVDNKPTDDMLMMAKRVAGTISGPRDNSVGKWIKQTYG
Described as above.

Experiment [5] deals with GFP-hnRNPC (zebrafish hnRNPC) (zebrafish (Danio rerio)). Described as above.

Take “Flag-hnRNPCC (84-272 aa) (zebrafish (Danio rerio)) (domain or fragment)”: in experiment [1], the binding result is “binds”. As to “Flag-hnRNPCRRM (1-83 aa) (zebrafish (Danio rerio)) (domain or fragment)”, in experiment [1], the binding result is listed as “binds”.

With GFP-hnRNPC (zebrafish hnRNPC), the binding result in experiment [2], in experiment [1], in experiment [3] and in experiment [4] was “binds” each time.

B1: Myc-SVCV-PCD (domain or fragment, UniProt Q91DS2 101-187)
chain: SWEEEPTGIDIGFGPGIVMPSVSNHEGGTYVRYNGLGGVDPNCKDLISKMMRSLIGQIGNKYGYDIDLFDYQGDFLEVFLPHKPSKE
As for B1, the binding entry in experiment [5] is listed as “binds”.
